Assay results as given in publication PMC12613848, “First in human phase 1 study of DT2216, a selective BCL-xL degrader, in patients with relapsed/refractory solid malignancies” (Journal of Hematology & Oncology, 2025).

Assay: Safety and tolerability in patients (adverse events CTCAE v5.0, DLT, platelet count, RP2D)
Type: in vivo, human
Conditions: IV BIW
Description: Dose escalation consisted of the administration of DT2216 intravenously twice weekly at several different doses outlined in protocol attached. The starting dose was 0.04 mg/kg, established based on pre-clinical toxicity studies. Safety was evaluated using CTCAE version 5.0. The initial three dose levels enrolled one patient, following which for dose level 4 and 5, a 3 + 3 design was utilized following a 100% incremental dose increase for dose levels 2 to 5 until the first dose limiting toxicity (DLT) in cycle 1 was observed. Thereafter, a modified Fibonacci sequence was used to define dose escalation increments until the maximum tolerated dose (MTD) was reached as described in protocol. If no dose-limiting toxicity (DLT) was observed during the DLT monitoring period of first 28 days, the next patient was enrolled at the next higher dose level. […]
Patients were allowed a maximum of two intra-patient dose escalations. […] The extent of disease was evaluated using imaging studies and disease-appropriate tumor markers every 8 weeks from day 1 of the first cycle. […]
Premedication prior to each infusion was at the discretion of the investigator or according to institutional guidelines. […] The clinical response was evaluated using RECIST v1.1 per protocol. […]

SMILES: Cc1ncsc1-c1ccc([C@H](C)NC(=O)[C@@H]2C[C@@H](O)CN2C(=O)[C@@H](NC(=O)CCCCCC(=O)N2CCN(CC[C@H](CSc3ccccc3)Nc3ccc(S(=O)(=O)NC(=O)c4ccc(N5CCN(CC6=C(c7ccc(Cl)cc7)CCC(C)(C)C6)CC5)cc4)cc3S(=O)(=O)C(F)(F)F)CC2)C(C)(C)C)cc1 [DT2216]
- recommended phase 2 dose (RP2D): 0.4 mg/kg
